Results taken from article PMC7372886.
No constants are given. Whether binding was seen depends on the method and setting. Binding seen in cells or lysates may run through a third protein. Here binding means that the protein was enriched with, or labelled near, the bait; the list need not be complete.

The chains behind the UniProt entries cited, without tags or fusion partners.
UniProt P49327: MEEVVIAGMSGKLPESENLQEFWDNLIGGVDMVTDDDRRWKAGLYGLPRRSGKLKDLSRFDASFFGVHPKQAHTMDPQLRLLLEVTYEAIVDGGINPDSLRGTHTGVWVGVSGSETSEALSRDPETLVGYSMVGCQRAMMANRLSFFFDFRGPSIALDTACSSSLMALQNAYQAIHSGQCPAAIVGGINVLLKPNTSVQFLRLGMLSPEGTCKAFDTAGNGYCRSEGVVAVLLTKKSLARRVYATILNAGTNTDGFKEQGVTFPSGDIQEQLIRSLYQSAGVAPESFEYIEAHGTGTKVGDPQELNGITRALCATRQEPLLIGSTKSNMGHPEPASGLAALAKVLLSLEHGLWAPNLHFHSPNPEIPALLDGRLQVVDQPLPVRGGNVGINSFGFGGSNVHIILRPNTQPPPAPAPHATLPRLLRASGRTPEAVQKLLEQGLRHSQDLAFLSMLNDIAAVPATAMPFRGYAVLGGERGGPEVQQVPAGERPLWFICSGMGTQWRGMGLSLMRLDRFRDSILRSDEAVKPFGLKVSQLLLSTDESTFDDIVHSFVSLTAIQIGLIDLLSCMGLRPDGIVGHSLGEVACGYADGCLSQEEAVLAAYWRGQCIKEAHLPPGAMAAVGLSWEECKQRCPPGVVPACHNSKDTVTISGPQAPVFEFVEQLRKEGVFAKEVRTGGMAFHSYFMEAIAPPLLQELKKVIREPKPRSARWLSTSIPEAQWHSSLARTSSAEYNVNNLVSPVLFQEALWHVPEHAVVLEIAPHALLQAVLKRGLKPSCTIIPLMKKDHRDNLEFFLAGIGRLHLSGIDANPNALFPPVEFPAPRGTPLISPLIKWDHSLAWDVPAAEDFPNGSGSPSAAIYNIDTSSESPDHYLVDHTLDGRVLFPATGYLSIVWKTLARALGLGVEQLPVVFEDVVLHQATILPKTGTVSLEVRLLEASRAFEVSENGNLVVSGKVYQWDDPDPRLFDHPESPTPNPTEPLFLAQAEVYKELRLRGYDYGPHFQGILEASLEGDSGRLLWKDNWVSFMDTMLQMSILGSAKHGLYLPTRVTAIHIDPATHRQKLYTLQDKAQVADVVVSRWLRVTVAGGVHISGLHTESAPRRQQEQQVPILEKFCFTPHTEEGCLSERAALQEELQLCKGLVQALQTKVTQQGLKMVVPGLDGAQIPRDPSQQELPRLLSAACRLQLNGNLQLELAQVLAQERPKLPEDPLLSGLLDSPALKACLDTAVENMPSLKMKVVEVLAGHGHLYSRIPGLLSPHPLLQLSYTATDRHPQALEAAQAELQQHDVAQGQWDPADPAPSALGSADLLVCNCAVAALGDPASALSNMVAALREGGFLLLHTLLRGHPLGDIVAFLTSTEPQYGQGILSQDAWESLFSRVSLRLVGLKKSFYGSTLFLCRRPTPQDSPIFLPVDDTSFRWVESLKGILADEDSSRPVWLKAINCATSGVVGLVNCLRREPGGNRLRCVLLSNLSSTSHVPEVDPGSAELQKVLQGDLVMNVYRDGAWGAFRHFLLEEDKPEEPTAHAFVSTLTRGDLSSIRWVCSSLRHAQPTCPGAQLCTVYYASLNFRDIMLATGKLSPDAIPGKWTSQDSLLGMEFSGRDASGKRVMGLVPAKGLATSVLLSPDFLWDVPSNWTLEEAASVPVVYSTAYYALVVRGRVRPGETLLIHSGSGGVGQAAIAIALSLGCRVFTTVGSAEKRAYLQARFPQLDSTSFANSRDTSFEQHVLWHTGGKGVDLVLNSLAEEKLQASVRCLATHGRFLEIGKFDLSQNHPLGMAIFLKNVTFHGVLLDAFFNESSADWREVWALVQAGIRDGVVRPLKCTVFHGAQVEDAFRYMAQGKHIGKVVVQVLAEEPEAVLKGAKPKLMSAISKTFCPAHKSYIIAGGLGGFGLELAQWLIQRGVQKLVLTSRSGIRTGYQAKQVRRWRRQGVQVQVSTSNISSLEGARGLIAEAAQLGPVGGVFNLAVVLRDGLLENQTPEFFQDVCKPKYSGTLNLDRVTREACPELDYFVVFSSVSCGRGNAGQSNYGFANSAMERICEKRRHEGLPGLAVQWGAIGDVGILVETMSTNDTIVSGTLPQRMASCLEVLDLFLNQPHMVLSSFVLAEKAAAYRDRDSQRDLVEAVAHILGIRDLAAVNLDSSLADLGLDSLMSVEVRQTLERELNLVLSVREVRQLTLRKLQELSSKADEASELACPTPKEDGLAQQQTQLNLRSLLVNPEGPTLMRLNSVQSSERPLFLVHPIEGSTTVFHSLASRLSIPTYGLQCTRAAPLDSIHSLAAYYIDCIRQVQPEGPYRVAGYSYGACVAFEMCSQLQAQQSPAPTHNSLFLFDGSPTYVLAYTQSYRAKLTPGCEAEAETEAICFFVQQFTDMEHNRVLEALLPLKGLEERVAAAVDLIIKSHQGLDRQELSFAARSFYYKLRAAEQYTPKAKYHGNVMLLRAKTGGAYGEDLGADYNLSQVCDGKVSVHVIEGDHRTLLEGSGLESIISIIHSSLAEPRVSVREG

Target: Fatty acid synthase (human (endogenous in HepG2 and SMMC7721)) (UniProt P49327)
Assay: affinity purification with mass spectrometry; FASN antibody and Protein A/G agarose beads on whole cell lysates of HepG2 cells transfected with control siRNA or FASN siRNA; eluted proteins iTRAQ-labelled (114, 117 against 118, 121), Nano LC ESI MS/MS

| binding | Binder |
| --- | --- |
| binds | Leucine-rich repeat and calponin homology domain-containing protein 3 (protein, UniProt Q96II8 1-777) MAAAGLVAVAAAAEYSGTVASGGNLPGVHCGPSSGAGPGFGPGSWSRSLDRALEEAAVTGVLSLSGRKLREFPRGAANHDLTDTTRADLSRNRLSEIPIEACHFVSLENLNLYQNCIRYIPEAILNLQALTFLNISRNQLSTLPVHLCNLPLKVLIASNNKLVSLPEEIGHLRHLMELDVSCNEIQTIPSQIGNLEALRDLNVRRNHLVHLPEELAELPLIRLDFSCNKITTIPVCYRNLRHLQTITLDNNPLQSPPAQICIKGKVHIFKYLNIQACKIAPDLPDYDRRPLGFGSCHEELYSSRPYGALDSGFNSVDSGDKRWSGNEPTDEFSDLPLRVAEITKEQRLRRESQYQENRGSLVVTNGGVEHDLDQIDYIDSCTAEEEEAEVRQPKGPDPDSLSSQFMAYIEQRRISHEGSPVKPVAIREFQKTEDMRRYLHQNRVPAEPSSLLSLSASHNQLSHTDLELHQRREQLVERTRREAQLAALQYEEEKIRTKQIQRDAVLDFVKQKASQSPQKQHPLLDGVDGECPFPSRRSQHTDDSALCMSLSGLNQVGCAATLPHSSAFTPLKSDDRPNALLSSPATETVHHSPAYSFPAAIQRNQPQRPESFLFRAGVRAETNKGHASPLPPSAAPTTDSTDSITGQNSRQREEELELIDQLRKHIEYRLKVSLPCDLGAALTDGVVLCHLANHVRPRSVPSIHVPSPAVPKLTMAKCRRNVENFLEACRKIGVPQEQLCLPLHILEEKGLSQVAVTVQALLELAPPKQQQHQLSAV |
| binds | Adenylyltransferase and sulfurtransferase MOCS3 (protein, UniProt O95396 1-460) MASREEVLALQAEVAQREEELNSLKQKLASALLAEQEPQPERLVPVSPLPPKAALSRDEILRYSRQLVLPELGVHGQLRLGTACVLIVGCGGLGCPLAQYLAAAGVGRLGLVDYDVVEMSNLARQVLHGEALAGQAKAFSAAASLRRLNSAVECVPYTQALTPATALDLVRRYDVVADCSDNVPTRYLVNDACVLAGRPLVSASALRFEGQITVYHYDGGPCYRCIFPQPPPAETVTNCADGGVLGVVTGVLGCLQALEVLKIAAGLGPSYSGSLLLFDALRGHFRSIRLRSRRLDCAACGERPTVTDLLDYEAFCGSSATDKCRSLQLLSPEERVSVTDYKRLLDSGAFHLLLDVRPQVEVDICRLPHALHIPLKHLERRDAESLKLLKEAIWEEKQGTQEGAAVPIYVICKLGNDSQKAVKILQSLSAAQELDPLTVRDVVGGLMAWAAKIDGTFPQY |
| binds | 5′-nucleotidase (protein, UniProt P21589 27-549) WELTILHTNDVHSRLEQTSEDSSKCVNASRCMGGVARLFTKVQQIRRAEPNVLLLDAGDQYQGTIWFTVYKGAEVAHFMNALRYDAMALGNHEFDNGVEGLIEPLLKEAKFPILSANIKAKGPLASQISGLYLPYKVLPVGDEVVGIVGYTSKETPFLSNPGTNLVFEDEITALQPEVDKLKTLNVNKIIALGHSGFEMDKLIAQKVRGVDVVVGGHSNTFLYTGNPPSKEVPAGKYPFIVTSDDGRKVPVVQAYAFGKYLGYLKIEFDERGNVISSHGNPILLNSSIPEDPSIKADINKWRIKLDNYSTQELGKTIVYLDGSSQSCRFRECNMGNLICDAMINNNLRHTDEMFWNHVSMCILNGGGIRSPIDERNNGTITWENLAAVLPFGGTFDLVQLKGSTLKKAFEHSVHRYGQSTGEFLQVGGIHVVYDLSRKPGDRVVKLDVLCTKCRVPSYDPLKMDEVYKVILPNFLANGGDGFQMIKDELLRHDSGDQDINVVSTYISKMKVIYPAVEGRIKFS |
| binds | Actin filament-associated protein 1 (protein, UniProt Q8N556 1-730) MEELIVELRLFLELLDHEYLTSTVREKKAVITNILLRIQSSKGFDVKDHAQKQETANSLPAPPQMPLPEIPQPWLPPDSGPPPLPTSSLPEGYYEEAVPLSPGKAPEYITSNYDSDAMSSSYESYDEEEEDGKGKKTRHQWPSEEASMDLVKDAKICAFLLRKKRFGQWTKLLCVIKDTKLLCYKSSKDQQPQMELPLQGCNITYIPKDSKKKKHELKITQQGTDPLVLAVQSKEQAEQWLKVIKEAYSGCSGPVDSECPPPPSSPVHKAELEKKLSSERPSSDGEGVVENGITTCNGKEQVKRKKSSKSEAKGTVSKVTGKKITKIISLGKKKPSTDEQTSSAEEDVPTCGYLNVLSNSRWRERWCRVKDNKLIFHKDRTDLKTHIVSIPLRGCEVIPGLDSKHPLTFRLLRNGQEVAVLEASSSEDMGRWIGILLAETGSSTDPEALHYDYIDVEMSASVIQTAKQTFCFMNRRVISANPYLGGTSNGYAHPSGTALHYDDVPCINGSLKGKKPPVASNGVTGKGKTLSSQPKKADPAAVVKRTGSNAAQYKYGKNRVEADAKRLQTKEEELLKRKEALRNRLAQLRKERKDLRAAIEVNAGRKPQAILEEKLKQLEEECRQKEAERVSLELELTEVKESLKKALAGGVTLGLAIEPKSGTSSPQSPVFRHRTLENSPISSCDTSDTEGPVPVNSAAVLKKSQAAPGSSPCRGHVLRKAKEWELKNGT |
| binds | Putative RNA-binding protein 3 (protein, UniProt P98179 1-157) MSSEEGKLFVGGLNFNTDEQALEDHFSSFGPISEVVVVKDRETQRSRGFGFITFTNPEHASVAMRAMNGESLDGRQIRVDHAGKSARGTRGGGFGAHGRGRSYSRGGGDQGYGSGRYYDSRPGGYGYGYGRSRDYNGRNQGGYDRYSGGNYRDNYDN |
| binds | Protein phosphatase 1 regulatory subunit 12B (protein, UniProt O60237 1-982) MAELEHLGGKRAESARMRRAEQLRRWRGSLTEQEPAERRGAGRQPLTRRGSPRVRFEDGAVFLAACSSGDTDEVRKLLARGADINTVNVDGLTALHQACIDENLDMVKFLVENRANVNQQDNEGWTPLHAAASCGYLNIAEYFINHGASVGIVNSEGEVPSDLAEEPAMKDLLLEQVKKQGVDLEQSRKEEEQQMLQDARQWLNSGKIEDVRQARSGATALHVAAAKGYSEVLRLLIQAGYELNVQDYDGWTPLHAAAHWGVKEACSILAEALCDMDIRNKLGQTPFDVADEGLVEHLELLQKKQNVLRSEKETRNKLIESDLNSKIQSGFFKNKEKMLYEEETPKSQEMEEENKESSSSSSEEEEGEDEASESETEKEADKKPEAFVNHSNSESKSSITEQIPAPAQNTFSASSARRFSSGLFNKPEEPKDESPSSWRLGLRKTGSHNMLSEVANSREPIRDRGSSIYRSSSSPRISALLDNKDKERENKSYISSLAPRKLNSTSDIEEKENRESAVNLVRSGSYTRQLWRDEAKGNEIPQTIAPSTYVSTYLKRTPHKSQADTTAEKTADNVSSSTPLCVITNRPLPSTANGVTATPVLSITGTDSSVEAREKRRSYLTPVRDEEAESLRKARSRQARQTRRSTQGVTLTDLQEAERTFSRSRAERQAQEQPREKPTDTEGLEGSPEKHEPSAVPATEAGEGQQPWGRSLDEEPICHRLRCPAQPDKPTTPASPSTSRPSLYTSSHLLWTNRFSVPDSESSETTTNTTTAKEMDKNENEEADLDEQSSKRLSIRERRRPKERRRGTGINFWTKDEDETDGSEEVKETWHERLSRLESGGSNPTTSDSYGDRASARARREAREARLATLTSRVEEDSNRDYKKLYESALTENQKLKTKLQEAQLELADIKSKLEKVAQQKQEKTSDRSSVLEMEKRERRALERKMSEMEEEMKVLTELKSDNQRLKDENGALIRVISKLSK |
| binds | Allograft inflammatory factor 1-like (protein, UniProt Q9BQI0 1-150) MSGELSNRFQGGKAFGLLKARQERRLAEINREFLCDQKYSDEENLPEKLTAFKEKYMEFDLNNEGEIDLMSLKRMMEKLGVPKTHLEMKKMISEVTGGVSDTISYRDFVNMMLGKRSAVLKLVMMFEGKANESSPKPVGPPPERDIASLP |
| binds | Mitotic interactor and substrate of PLK1 (protein, UniProt Q8IVT2 1-679) MDRVTRYPILGIPQAHRGTGLVLDGDTSYTYHLVCMGPEASGWGQDEPQTWPTDHRAQQGVQRQGVSYSVHAYTGQPSPRGLHSENREDEGWQVYRLGARDAHQGRPTWALRPEDGEDKEMKTYRLDAGDADPRRLCDLERERWAVIQGQAVRKSSTVATLQGTPDHGDPRTPGPPRSTPLEENVVDREQIDFLAARQQFLSLEQANKGAPHSSPARGTPAGTTPGASQAPKAFNKPHLANGHVVPIKPQVKGVVREENKVRAVPTWASVQVVDDPGSLASVESPGTPKETPIEREIRLAQEREADLREQRGLRQATDHQELVEIPTRPLLTKLSLITAPRRERGRPSLYVQRDIVQETQREEDHRREGLHVGRASTPDWVSEGPQPGLRRALSSDSILSPAPDARAADPAPEVRKVNRIPPDAYQPYLSPGTPQLEFSAFGAFGKPSSLSTAEAKAATSPKATMSPRHLSESSGKPLSTKQEASKPPRGCPQANRGVVRWEYFRLRPLRFRAPDEPQQAQVPHVWGWEVAGAPALRLQKSQSSDLLERERESVLRREQEVAEERRNALFPEVFSPTPDENSDQNSRSSSQASGITGSYSVSESPFFSPIHLHSNVAWTVEDPVDSAPPGQRKKEQWYAGINPSDGINSEVLEAIRVTRHKNAMAERWESRIYASEEDD |
| binds | Tropomodulin-1 (protein, UniProt P28289 1-359) MSYRRELEKYRDLDEDEILGALTEEELRTLENELDELDPDNALLPAGLRQKDQTTKAPTGPFKREELLDHLEKQAKEFKDREDLVPYTGEKRGKVWVPKQKPLDPVLESVTLEPELEEALANASDAELCDIAAILGMHTLMSNQQYYQALSSSSIMNKEGLNSVIKPTQYKPVPDEEPNSTDVEETLERIKNNDPKLEEVNLNNIRNIPIPTLKAYAEALKENSYVKKFSIVGTRSNDPVAYALAEMLKENKVLKTLNVESNFISGAGILRLVEALPYNTSLVEMKIDNQSQPLGNKVEMEIVSMLEKNATLLKFGYHFTQQGPRLRASNAMMNNNDLVRKRRLADLTGPIIPKCRSGV |
| binds | CD59 glycoprotein (protein, UniProt P13987 26-102) LQCYNCPNPTADCKTAVNCSSDFDACLITKAGLQVYNKCWKFEHCNFNDVTTRLRENELTYYCCKKDLCNFNEQLEN |
